Test results published in the supplement of paper PMC11546906.
The list shows a part of the results. This data set is noisy: repeats of one test often differ as much as different tests do.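 Screen of FDA-approved drugs, each combined with colistin at one-eighth of its MIC, against a multidrug-resistant mcr-1-positive clinical E. coli isolate; growth read as OD600 after 24 h. Bacteria without drug were the growth control and plain broth the blank. A combination counted as active when OD600 fell below 0.2.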

System: Escherichia coli 42 (mcr-1-positive clinical isolate)
Experiment: OD600 after 24 h growth with compound plus colistin (absorbance units (OD600)); higher = more bacterial growth (less inhibition)
Conditions: first compound 25 µM; colistin concentration 0.5 ug/mL; incubation time 24 h; 37 °C

| Structure (SMILES) | OD600 |
| --- | --- |
| O=C(O)C[C@H](O)C[C@H](O)/C=C/c1c(C2CC2)nc2ccccc2c1-c1ccc(F)cc1 [Pitavastatin calcium] + CCC(C)CCCC(=O)N[C@@H](CCN)C(=O)N[C@H](C(=O)N[C@@H](CCN)C(=O)N[C@H]1CCNC(=O)[C@H]([C@@H](C)O)NC(=O)[C@H](CCN)NC(=O)[C@H](CCN)NC(=O)[C@H](CC(C)C)NC(=O)[C@@H](CC(C)C)NC(=O)[C@H](CCN)NC1=O)[C@@H](C)O [colistin] | inactive: 1.01 |
| O=S(=O)(O)CCS [Sodium 2-mercaptoethanesulfonate] + CCC(C)CCCC(=O)N[C@@H](CCN)C(=O)N[C@H](C(=O)N[C@@H](CCN)C(=O)N[C@H]1CCNC(=O)[C@H]([C@@H](C)O)NC(=O)[C@H](CCN)NC(=O)[C@H](CCN)NC(=O)[C@H](CC(C)C)NC(=O)[C@@H](CC(C)C)NC(=O)[C@H](CCN)NC1=O)[C@@H](C)O [colistin] | inactive: 0.816 |
| Cc1cc(C2CCCCC2)n(O)c(=O)c1 [Ciclopirox] + CCC(C)CCCC(=O)N[C@@H](CCN)C(=O)N[C@H](C(=O)N[C@@H](CCN)C(=O)N[C@H]1CCNC(=O)[C@H]([C@@H](C)O)NC(=O)[C@H](CCN)NC(=O)[C@H](CCN)NC(=O)[C@H](CC(C)C)NC(=O)[C@@H](CC(C)C)NC(=O)[C@H](CCN)NC1=O)[C@@H](C)O [colistin] | inactive: 0.947 |
